No constants are given. Whether binding was seen depends on the method and setting. In cells and extracts the contact can be indirect. Binding can be weak; no strength is given. Tags and fused reporters may be left off the sequences shown.

By UniProt entry, the sequences of proteins in these tests, tags left out. Where a name states a change or a piece, a line headed by the entry shows the natural chain unless it says otherwise.
UniProt P36874: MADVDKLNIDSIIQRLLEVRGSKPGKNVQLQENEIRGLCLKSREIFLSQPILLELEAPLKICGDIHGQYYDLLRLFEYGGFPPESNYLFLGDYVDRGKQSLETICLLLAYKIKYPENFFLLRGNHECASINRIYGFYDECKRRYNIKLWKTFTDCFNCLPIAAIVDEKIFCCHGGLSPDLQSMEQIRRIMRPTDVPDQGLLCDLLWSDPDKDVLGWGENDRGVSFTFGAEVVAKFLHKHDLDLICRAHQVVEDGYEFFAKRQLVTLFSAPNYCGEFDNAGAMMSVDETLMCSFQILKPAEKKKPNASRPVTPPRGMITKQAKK

In test [1] the target is Xenopus PP1 catalytic subunit (XePP1c), endogenous in oocytes (Xenopus laevis (endogenous in oocytes)) (UniProt P36874). As to the kind of experiment: co-IP; Xenopus oocytes injected with PbLRR1 cRNA (60 ng), lysed after 15 h in buffer A (50 mM Hepes pH 7.4, 500 mM NaCl, 0.05% SDS); anti-PP1 mAb with protein A-sepharose, 4°C; blot with anti-HA and anti-PP1.
Test [2] shares this target. The test is described as follows: co-IP; Xenopus oocytes pre-injected with peptides (100 ng), control peptide P0 or PBS 1 h before PbLRR1 cRNA; extracts precipitated with anti-PP1 mAb (blot anti-HA) and with anti-HA (blot anti-PP1).

B1: PbLRR1 expressed in Xenopus oocytes from cRNA (PbLRR1-pGADT7 template), HA-tagged (protein, UniProt A0A509ALG1 1-310)
chain: MATYNVLGEITTFDENETIISHQYSRIRKIENIEKCKKLMTLQLISNCIEKIENLENNIELEHLELYENSIKRIENISMLINLKVLDLSFNKIKVIENLETLVNLEELYLSSNKISKIENLKNCKKLRLLELGYNKIRKIENIENLKNLEELWLGKNKIEHLELPELPKLKKLSLQHNRLTKWDEKSINNVLSLNELYLSYNKLNEINDQIKELKYLKVLDLAYNEIENILICSELKHLEELWLNNNNIKSLDMIVKLKNNENLKTLYLEKNEIQDNLKDTYRDQIISILPQIQQLDALLISPTNLLKKK
B1: the binding entry in test [1] and in test [2] was “binds” in each case.

The values above are taken from PMC9346556.
